Results are given in words; binding and its absence hold for the method and conditions named. In cells and extracts the contact can be indirect. Tags and fused reporters may be left off the sequences shown.
Target: T1, FLAG-tagged FKBP4 (human) (UniProt Q02790)
T1 sequence: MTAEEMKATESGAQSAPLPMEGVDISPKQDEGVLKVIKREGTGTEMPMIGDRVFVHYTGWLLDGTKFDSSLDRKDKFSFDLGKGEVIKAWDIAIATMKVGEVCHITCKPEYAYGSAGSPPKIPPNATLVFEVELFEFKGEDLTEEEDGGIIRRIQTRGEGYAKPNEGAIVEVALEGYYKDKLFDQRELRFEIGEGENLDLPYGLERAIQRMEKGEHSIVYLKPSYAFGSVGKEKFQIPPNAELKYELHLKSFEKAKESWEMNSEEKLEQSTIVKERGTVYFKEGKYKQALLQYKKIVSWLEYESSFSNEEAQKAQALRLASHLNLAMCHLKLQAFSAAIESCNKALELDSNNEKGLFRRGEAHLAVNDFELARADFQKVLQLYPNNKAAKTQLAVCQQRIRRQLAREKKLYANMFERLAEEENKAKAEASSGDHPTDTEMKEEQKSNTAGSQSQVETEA
Experiment: co-IP; HEK293T transfected 48 h; lysis in 20 mM Tris-HCl pH 7.5, 130 mM NaCl, 20 mM Na2MoO4, 1 mM EDTA, 10% glycerol, 0.5% Triton X-100; anti-c-Myc or anti-FLAG antibody 2 h at 4 °C, protein G magnetic beads; endogenous proteins detected by western blotting

- binding: no binding
Substance: HSP70 (human (endogenous in HEK293T))
